Assay results published in the supplement of paper PMC10849652.
The list shows a part of the results.

Sequences of proteins named here, by UniProt entry; tags and fusion partners are left off. A change or cut given only in a name is not applied to a line headed by its entry.
UniProt P62328: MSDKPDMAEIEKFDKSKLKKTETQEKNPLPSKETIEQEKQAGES
UniProt Q9NX78: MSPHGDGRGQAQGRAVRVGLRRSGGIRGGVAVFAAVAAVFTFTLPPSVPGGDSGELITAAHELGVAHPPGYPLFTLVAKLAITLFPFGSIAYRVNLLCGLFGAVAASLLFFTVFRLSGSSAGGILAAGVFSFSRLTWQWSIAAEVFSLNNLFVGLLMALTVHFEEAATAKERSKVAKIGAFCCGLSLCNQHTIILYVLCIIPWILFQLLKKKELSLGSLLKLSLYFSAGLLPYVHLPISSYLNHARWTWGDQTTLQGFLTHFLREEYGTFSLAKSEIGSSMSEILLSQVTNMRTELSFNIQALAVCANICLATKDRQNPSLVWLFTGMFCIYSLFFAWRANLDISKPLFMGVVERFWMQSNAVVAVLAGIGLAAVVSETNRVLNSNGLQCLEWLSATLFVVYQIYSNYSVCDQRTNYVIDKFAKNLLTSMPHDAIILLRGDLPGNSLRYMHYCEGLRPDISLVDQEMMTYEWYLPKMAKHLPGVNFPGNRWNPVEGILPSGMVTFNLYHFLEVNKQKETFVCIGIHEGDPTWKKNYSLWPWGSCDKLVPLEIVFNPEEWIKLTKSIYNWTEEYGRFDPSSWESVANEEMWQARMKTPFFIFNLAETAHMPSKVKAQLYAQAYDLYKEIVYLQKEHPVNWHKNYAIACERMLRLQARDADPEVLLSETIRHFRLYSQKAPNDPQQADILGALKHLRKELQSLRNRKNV
UniProt P21580: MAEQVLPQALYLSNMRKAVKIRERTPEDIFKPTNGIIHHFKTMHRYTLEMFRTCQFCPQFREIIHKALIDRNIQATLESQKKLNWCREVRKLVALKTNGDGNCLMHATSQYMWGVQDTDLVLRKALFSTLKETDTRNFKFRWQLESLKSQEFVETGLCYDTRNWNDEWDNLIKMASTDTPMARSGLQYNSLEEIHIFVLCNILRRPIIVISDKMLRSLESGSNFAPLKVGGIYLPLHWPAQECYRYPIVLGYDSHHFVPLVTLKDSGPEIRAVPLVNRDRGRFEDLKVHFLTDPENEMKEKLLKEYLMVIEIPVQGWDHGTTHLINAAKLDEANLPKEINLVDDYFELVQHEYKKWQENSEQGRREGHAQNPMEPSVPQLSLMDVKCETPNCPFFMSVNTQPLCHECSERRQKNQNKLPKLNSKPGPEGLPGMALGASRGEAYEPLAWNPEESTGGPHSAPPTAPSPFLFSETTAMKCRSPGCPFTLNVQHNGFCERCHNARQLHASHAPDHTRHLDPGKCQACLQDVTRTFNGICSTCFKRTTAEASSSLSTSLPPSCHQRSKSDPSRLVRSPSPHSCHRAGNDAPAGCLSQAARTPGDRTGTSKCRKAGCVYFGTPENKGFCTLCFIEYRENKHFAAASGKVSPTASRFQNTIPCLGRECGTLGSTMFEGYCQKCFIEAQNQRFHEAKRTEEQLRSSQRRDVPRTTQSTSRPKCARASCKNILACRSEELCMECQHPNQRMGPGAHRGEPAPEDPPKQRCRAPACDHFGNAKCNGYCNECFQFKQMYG
UniProt Q12767: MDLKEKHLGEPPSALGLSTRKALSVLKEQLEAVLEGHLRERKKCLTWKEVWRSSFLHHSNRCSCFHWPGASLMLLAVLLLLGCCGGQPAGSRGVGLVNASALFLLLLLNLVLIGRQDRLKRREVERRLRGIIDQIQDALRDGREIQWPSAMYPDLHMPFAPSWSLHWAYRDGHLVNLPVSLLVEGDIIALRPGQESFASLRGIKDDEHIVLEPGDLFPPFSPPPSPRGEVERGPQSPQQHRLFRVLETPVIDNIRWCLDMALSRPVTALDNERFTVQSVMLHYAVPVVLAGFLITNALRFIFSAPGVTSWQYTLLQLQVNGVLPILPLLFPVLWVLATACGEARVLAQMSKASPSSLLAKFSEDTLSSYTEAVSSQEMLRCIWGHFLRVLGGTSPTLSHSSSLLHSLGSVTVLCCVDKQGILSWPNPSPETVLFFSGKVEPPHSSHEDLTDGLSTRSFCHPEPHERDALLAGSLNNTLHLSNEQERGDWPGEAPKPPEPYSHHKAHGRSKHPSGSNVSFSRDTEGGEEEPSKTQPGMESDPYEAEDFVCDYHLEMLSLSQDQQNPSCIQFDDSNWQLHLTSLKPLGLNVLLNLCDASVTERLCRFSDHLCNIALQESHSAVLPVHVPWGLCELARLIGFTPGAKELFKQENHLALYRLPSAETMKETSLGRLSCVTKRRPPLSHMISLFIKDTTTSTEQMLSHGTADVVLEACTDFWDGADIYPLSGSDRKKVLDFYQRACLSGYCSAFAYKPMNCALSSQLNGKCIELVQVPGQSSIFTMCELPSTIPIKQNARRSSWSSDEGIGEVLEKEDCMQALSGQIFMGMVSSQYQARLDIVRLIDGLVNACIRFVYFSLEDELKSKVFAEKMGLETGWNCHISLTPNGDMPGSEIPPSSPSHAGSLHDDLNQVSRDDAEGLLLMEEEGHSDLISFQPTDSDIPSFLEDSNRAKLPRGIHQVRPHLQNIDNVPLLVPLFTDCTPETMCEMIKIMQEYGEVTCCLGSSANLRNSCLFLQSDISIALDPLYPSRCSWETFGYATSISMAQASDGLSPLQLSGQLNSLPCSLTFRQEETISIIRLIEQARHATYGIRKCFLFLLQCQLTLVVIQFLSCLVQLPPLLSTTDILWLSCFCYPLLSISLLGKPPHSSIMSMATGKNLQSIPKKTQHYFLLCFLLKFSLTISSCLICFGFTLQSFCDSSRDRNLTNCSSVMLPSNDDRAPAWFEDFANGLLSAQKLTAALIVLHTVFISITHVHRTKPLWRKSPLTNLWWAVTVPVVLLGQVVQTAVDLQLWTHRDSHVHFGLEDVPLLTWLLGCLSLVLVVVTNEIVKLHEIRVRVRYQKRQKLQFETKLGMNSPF
UniProt O75069: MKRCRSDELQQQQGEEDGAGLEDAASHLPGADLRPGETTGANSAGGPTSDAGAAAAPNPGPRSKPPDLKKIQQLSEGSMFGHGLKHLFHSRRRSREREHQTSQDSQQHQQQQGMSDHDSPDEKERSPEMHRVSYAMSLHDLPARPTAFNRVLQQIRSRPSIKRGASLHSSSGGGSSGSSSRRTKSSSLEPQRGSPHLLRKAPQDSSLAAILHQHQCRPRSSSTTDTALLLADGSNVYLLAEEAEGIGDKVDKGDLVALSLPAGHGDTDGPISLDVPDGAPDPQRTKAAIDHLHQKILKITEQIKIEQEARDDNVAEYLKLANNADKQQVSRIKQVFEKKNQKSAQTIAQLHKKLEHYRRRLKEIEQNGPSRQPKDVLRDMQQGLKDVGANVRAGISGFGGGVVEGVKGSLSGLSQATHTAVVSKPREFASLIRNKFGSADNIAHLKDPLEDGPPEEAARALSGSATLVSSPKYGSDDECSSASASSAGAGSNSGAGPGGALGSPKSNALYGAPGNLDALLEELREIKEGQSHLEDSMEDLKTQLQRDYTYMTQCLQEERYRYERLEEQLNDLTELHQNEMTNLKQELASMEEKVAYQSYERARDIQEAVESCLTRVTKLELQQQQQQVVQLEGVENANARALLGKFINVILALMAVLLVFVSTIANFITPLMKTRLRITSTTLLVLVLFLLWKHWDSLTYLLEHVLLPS
UniProt Q96DC7: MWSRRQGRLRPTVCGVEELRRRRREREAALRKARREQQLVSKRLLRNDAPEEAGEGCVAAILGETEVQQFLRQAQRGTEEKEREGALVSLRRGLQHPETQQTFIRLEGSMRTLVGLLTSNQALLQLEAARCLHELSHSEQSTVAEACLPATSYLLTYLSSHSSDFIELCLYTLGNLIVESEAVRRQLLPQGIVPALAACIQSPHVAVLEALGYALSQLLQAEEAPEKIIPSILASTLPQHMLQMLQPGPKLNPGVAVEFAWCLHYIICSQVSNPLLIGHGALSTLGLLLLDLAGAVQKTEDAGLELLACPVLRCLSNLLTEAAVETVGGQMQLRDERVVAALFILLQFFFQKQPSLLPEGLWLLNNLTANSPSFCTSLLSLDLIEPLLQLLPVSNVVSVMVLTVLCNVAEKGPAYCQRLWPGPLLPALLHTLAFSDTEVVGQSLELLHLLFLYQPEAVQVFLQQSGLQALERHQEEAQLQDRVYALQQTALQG
UniProt Q9H6X4: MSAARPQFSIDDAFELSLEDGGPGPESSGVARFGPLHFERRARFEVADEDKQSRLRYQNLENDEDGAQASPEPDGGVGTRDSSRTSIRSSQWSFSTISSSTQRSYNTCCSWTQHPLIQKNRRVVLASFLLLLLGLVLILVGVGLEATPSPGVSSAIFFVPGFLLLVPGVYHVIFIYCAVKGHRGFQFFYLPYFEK
UniProt Q0VDI3: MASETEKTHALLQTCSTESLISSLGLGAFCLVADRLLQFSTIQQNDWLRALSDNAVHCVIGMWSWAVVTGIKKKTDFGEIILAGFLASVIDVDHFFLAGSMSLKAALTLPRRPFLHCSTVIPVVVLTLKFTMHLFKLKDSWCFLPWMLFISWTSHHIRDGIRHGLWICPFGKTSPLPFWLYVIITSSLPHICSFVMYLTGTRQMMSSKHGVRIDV
UniProt Q9BXS4: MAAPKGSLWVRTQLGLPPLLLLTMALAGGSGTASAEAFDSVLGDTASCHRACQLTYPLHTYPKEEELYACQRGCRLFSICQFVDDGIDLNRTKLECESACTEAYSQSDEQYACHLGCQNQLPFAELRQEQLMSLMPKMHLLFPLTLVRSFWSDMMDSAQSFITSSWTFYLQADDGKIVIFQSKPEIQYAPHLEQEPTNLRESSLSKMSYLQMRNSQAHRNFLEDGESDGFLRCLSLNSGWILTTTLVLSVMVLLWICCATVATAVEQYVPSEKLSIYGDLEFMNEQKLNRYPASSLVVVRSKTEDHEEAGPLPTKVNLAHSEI
UniProt Q9BSE2: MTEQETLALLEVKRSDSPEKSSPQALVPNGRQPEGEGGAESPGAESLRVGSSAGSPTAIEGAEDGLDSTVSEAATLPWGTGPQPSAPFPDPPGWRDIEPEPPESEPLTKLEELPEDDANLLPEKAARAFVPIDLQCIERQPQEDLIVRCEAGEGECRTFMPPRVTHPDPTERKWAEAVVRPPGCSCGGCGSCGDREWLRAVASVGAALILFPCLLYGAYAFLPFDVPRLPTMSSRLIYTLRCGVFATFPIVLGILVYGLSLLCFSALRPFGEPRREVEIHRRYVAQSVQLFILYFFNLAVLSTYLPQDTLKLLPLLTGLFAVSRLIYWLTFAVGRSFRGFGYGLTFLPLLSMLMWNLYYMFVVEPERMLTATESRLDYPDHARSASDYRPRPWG
UniProt Q96B96: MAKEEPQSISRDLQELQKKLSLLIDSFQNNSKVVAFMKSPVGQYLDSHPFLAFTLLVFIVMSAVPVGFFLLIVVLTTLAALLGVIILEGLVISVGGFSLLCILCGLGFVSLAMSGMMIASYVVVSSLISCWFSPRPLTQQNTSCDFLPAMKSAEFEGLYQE
UniProt P19438, whole entry, looked up: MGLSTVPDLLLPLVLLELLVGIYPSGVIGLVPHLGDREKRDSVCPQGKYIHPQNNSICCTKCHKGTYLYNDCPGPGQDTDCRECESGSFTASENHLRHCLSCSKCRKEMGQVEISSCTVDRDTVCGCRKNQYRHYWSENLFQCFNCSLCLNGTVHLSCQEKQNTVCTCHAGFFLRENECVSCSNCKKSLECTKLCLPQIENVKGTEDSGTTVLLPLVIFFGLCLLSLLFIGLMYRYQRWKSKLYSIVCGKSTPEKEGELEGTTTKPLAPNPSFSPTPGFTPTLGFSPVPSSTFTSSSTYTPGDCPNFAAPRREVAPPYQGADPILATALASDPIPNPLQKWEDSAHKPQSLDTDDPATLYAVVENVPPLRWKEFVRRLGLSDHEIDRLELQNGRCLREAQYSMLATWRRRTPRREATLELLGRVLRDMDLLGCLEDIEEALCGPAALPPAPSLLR
UniProt Q03169: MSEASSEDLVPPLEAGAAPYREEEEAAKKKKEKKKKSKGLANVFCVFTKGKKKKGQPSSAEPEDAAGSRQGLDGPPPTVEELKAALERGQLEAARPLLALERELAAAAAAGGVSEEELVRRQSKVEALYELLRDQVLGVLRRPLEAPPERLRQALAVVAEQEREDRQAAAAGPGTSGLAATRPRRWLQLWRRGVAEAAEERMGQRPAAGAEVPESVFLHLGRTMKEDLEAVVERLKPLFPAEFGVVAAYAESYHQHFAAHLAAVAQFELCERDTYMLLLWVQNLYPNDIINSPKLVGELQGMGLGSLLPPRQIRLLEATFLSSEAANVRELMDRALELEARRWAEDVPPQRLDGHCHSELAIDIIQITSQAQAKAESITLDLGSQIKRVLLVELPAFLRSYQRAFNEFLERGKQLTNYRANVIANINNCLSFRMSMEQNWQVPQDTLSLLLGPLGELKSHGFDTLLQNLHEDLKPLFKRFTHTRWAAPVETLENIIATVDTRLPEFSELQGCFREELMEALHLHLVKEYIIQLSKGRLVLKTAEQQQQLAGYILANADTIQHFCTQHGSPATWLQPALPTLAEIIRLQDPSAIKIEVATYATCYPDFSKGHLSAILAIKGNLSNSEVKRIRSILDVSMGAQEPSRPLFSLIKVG

Key:
Experiment in all cases: log2 fold change, soluble protein after heating vs DMSO (PISA); higher = thermal stabilisation; K562 cells, 10 uM, 30 min; active = over 0.2 and 3.5 SD of the protein, either way, in both replicates (recomputed)
[1] = compound: NC(=O)Nc1cc(-c2cccc(F)c2)sc1C(=O)N[C@H]1CCCNC1
How it was run: (§1)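 K562 cells at 2×10^6 cells/mL were exposed to 10 μM compound for 30 min, then aliquots were heated for 3 min across 48°C-58°C, pooled, and extracted in PBS containing 0.5% NP-40 at 4°C. The supernatant after 21,000xg for 90 min was taken as soluble protein and measured by TMTpro 16plex LC-MS/MS with channel sums equalised. Thermal stability is reported relative to control samples, with values from duplicates. Fold changes are given on a log2 scale.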

entinostat = compound: Nc1ccccc1NC(=O)c1ccc(CNC(=O)OCc2cccnc2)cc1 [entinostat]
How it was run: as §1

[2] = compound: NC(=O)c1cnc(N[C@@H]2CCCC[C@@H]2N)nc1Nc1cccc(-n2nccn2)c1
How it was run: as §1

[3] = compound: NC1(c2ccc(-c3nc4ccn5c(=O)[nH]nc5c4cc3-c3ccccc3)cc2)CCC1
How it was run: as §1

[4] = compound: NCC(=O)Nc1ccc(-n2nc(C(F)(F)F)cc2-c2ccc3c(ccc4ccccc43)c2)cc1
How it was run: as §1

citarinostat = compound: O=C(CCCCCCNC(=O)c1cnc(N(c2ccccc2)c2ccccc2Cl)nc1)NO [citarinostat]
How it was run: as §1

silmitasertib = compound: O=C(O)c1ccc2c(c1)nc(Nc1cccc(Cl)c1)c1ccncc12 [silmitasertib]
How it was run: as §1

[5] = compound: O=C1NC(=O)C(c2cnc3ccccn23)=C1c1cn2c3c(cc(F)cc13)CN(C(=O)N1CCCCC1)CC2
How it was run: as §1

[6] = compound: c1cc(OCCN2CCCCC2)cc(-c2n[nH]c3ccc(-c4nnc[nH]4)cc23)c1
How it was run: as §1

entospletinib = compound: c1cn2cc(-c3ccc4cn[nH]c4c3)nc(Nc3ccc(N4CCOCC4)cc3)c2n1 [entospletinib]
How it was run: as §1

vorinostat = compound: O=C(CCCCCCC(=O)Nc1ccccc1)NO [vorinostat]
How it was run: as §1

Measured: log2 fold change

TM2D1 (UniProt Q9BX74)
inactive: [1] -0.3 | entinostat 0.121

TMSB4X (UniProt P62328)
inactive: [2] 0.314 | [3] 0.63 | [4] -0.123 | citarinostat -0.338 | silmitasertib -0.105 | [5] -1.08 | [6] 0.271 | entospletinib 0.21

TMEM260 (UniProt Q9NX78)
inactive: [2] 0.098 | [3] -0.026 | silmitasertib 0.047

TNFAIP1 (UniProt Q13829)
inactive: [2] 0.108 | [3] 0.003 | [4] -0.007 | citarinostat 0.116 | silmitasertib 0.051 | [5] -0.325 | [6] -0.219 | entospletinib -0.017

TNFAIP3 (UniProt P21580)
inactive: [2] 0.024 | [3] -0.033 | [4] -0.013 | vorinostat -0.003 | silmitasertib 0.092 | [5] -0.115

TMEM94 isoform 2 (UniProt Q12767)
inactive: [2] -0.016

TLR4 (UniProt O00206)
inactive: [1] 0 | [4] -0.122 | entinostat -0.063 | vorinostat -0.084 | citarinostat -0.018 | [6] -0.055 | entospletinib -0.008

TMEM120B (UniProt A0PK00)
inactive: [2] 0.146 | [3] 0.02 | [4] 0.253 | vorinostat -0.068 | silmitasertib 0.099

TMCC2 (UniProt O75069)
inactive: [2] -0.217

TMCO6 isoform 2 (UniProt Q96DC7)
inactive: vorinostat 0.237

TMEM41B (UniProt Q5BJD5)
inactive: [2] -0.158 | [3] -0.067 | [4] -0.111 | vorinostat 0.01 | citarinostat -0.018 | silmitasertib 0.049 | [5] 0.079 | [6] -0.031 | entospletinib 0.003

TMEM134 (UniProt Q9H6X4)
inactive: [2] 0.124 | [3] -0.066 | vorinostat -0.182 | silmitasertib -0.014 | [5] 0.057

TMEM104 (UniProt Q8NE00)
inactive: [2] 0.08 | [3] 0.232 | vorinostat 0.068 | citarinostat -0.063 | silmitasertib 0.097 | [5] 0.143 | [6] -0.051

TMEM35B (UniProt Q8NCS4)
inactive: [3] 0.053 | [4] -0.105 | vorinostat -0.126 | silmitasertib 0.03

TMEM267 (UniProt Q0VDI3)
inactive: [2] -0.085 | [4] -0.226 | vorinostat -0.177 | citarinostat -0.101 | [6] 0.082 | entospletinib -0.094

Two entries drawn at random from the list so far:
TMEM134 (UniProt Q9H6X4)
inactive: [2] 0.124 | [3] -0.066 | vorinostat -0.182 | silmitasertib -0.014 | [5] 0.057

TMEM35B (UniProt Q8NCS4)
inactive: [3] 0.053 | [4] -0.105 | vorinostat -0.126 | silmitasertib 0.03

Additional records follow.

TMEM101 (UniProt Q96IK0)
inactive: [2] -0.155 | [3] -0.13 | [4] -0.167 | vorinostat -0.017 | citarinostat 0.129 | silmitasertib -0.002 | [6] -0.059 | entospletinib 0.023

TMEM69 (UniProt Q5SWH9)
inactive: [2] -0.146 | [3] -0.156 | vorinostat 0.012 | citarinostat 0.017 | silmitasertib 0.003 | [6] -0.208 | entospletinib -0.104

TMEM273 isoform 2 (UniProt Q5T292)
inactive: [2] -0.286 | [4] -0.102

TMEM59 (UniProt Q9BXS4)
inactive: [2] 0.032 | [3] 0.118 | vorinostat -0.075 | silmitasertib -0.103

TMEM98 (UniProt Q9Y2Y6)
inactive: [3] 0.226 | silmitasertib 0.162

TMEM79 (UniProt Q9BSE2)
inactive: [2] 0.24

TMEM159 isoform 2 (UniProt Q96B96)
inactive: [1] 0.02 | [3] 0.07 | entinostat -0.098 | vorinostat -0.127 | silmitasertib -0.046 | [5] 0.007

TMEM184B (UniProt Q9Y519)
inactive: [1] 0.056 | [3] 0.021 | entinostat 0.002 | silmitasertib 0.034

TMCC3 (UniProt Q9ULS5)
inactive: [1] 0.002 | [3] -0.095 | entinostat -0.012 | citarinostat -0.012 | silmitasertib -0.026 | [6] -0.024 | entospletinib -0.241

TMEM127 (UniProt O75204)
inactive: [2] -0.126

TMCO3 (UniProt Q6UWJ1)
inactive: [1] -0.019 | [3] 0.026 | [4] 0.32 | entinostat -0.008 | vorinostat -0.197 | silmitasertib 0.134 | [5] -0.008

TMEM181 (UniProt Q9P2C4)
inactive: [2] 0.194 | [3] -0.059 | [4] -0.06 | vorinostat 0 | citarinostat 0.053 | silmitasertib 0.029 | [6] 0.076 | entospletinib -0.014

TNFRSF1A (UniProt P19438)
inactive: [1] -0.377 | entinostat -0.086 | vorinostat -0.144 | [5] 0.108

TMPO (UniProt G5E972)
inactive: [3] -0.289 | vorinostat 0.082 | silmitasertib 0.072

TNFAIP2 (UniProt Q03169)
inactive: [1] -0.025 | entinostat -0.049
